# Laboratory results: patent publication US12305200B2, “Methods and compositions for vault nanoparticle immobilization of therapeutic molecules and for vault targeting” (AUKERA, INC., priority 2017, dated 2025)
# Sequences of proteins named here, by UniProt entry; tags and fusion partners are left off.
# UniProt P30550: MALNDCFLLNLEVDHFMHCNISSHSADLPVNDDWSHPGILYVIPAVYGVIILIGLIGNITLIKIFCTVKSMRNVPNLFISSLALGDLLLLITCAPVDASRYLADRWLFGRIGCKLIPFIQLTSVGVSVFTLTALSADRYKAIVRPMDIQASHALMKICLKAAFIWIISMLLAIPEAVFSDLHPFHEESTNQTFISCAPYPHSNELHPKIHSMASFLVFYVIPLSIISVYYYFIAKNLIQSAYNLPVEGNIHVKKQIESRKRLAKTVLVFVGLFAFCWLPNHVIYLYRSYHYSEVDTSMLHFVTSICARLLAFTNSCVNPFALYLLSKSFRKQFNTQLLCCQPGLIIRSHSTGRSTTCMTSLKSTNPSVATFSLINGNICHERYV
# No constants are given. Whether binding was seen depends on the method and setting. Some binding calls cover weakened binding; strength is not graded here.
# Target: gastrin releasing peptide receptor (GRPR) (human) (UniProt P30550)
# Assay: in vitro binding of DyLight-488 labelled vaults to GRPR-expressing PC-3 cells, epifluorescence microscopy
binder,measurement,value
rat vault nanoparticles modified to express the gastrin releasing peptide (GRP) ligand in the unstructured region of the shoulder domain (designed binder) MATEEAIIRIPPYHYIHVLDQNSNVSRVEVGPKTYIRQDNERVLFAPVRMVTVPPRHYCIVANPVSRDTQSSVLFDITGQVRLRHADQEIRLAQDPFPLYPGEVLEKDITPLQVVLPNTALHLKALLDFEDKNGDKVMAGDEWLFEGPGTYIPQKEVEVVEIIQATVIKQNQALRLRARKECFDREGKGRVTGEEWLVRSVGAYLPAVFEEVLDLVDAVILTEKTALHLRALQNFRDLRGVLHRTGEEWLVTVQDTEAHVPDVYEEVLGVVPITTLGPRHYCVILDPMGPDGKNQLGQKRVVKGEKSFFLQPGERLERGIQDVYVLSEQQGLLLKALQPLEEGESEEKVSHQAGDCWLIRGPLEYVPSAKVEVVEERQAIPLDQNEGIYVQDVKTGKVRAVIGSTYMLTQDEVLWEKELPSGVEELLNLGHDPLADRGQKGTAKPLQPSAPRNKTRVVSYRVPHNAAVQVYDYRAKRARVVFGPELVTLDPEEQFTVLSLSAGRPKRPHARRALCLLLGPDFFTDVITIETADHARLQLQLAYNWHFELKNRNDPAEAAKLFSVPDFVGDACKAIASRVRGAVASVTFDDFHKNSARIIRMAVFGFEMSEDTGSQWAVGHLMAPDGTLLPKARDQAVFPQNGLVVSSVDVQSVEPVDQRTRDALQRSVQLAIEITTNSQEAAAKHEAQRLEQEARGRLERQKILDQSEAEKARKELLELEAMSMAVESTGNAKAEAESRAEAARIEGEGSVLQAKLKAQALAIETEAELERVKKVREMELIYARAQLELEVSKAQQLANVEAKKFKEMTEALGPGTIRDLAVAGPEMQVKLLQSLGLKSTLITDGSSPINLFSTAFGLLGLGSDGQPPAQK,binding,binds
